# Hit rate of the full screen: of about 330,000 compounds, about 1,000 (0.3%) were called active. The shares of active, inactive and inconclusive entries below differ from those in the screen. The call rests on the fitted dose curve; in most records, active means well fitted inhibition curve with a large enough effect; inconclusive means small, poorly fitted or top-dose-only effect; inactive means no such curve, though single readings can be large or run the other way; tested in mouse RAW 264.7 cells. A potency beside an inconclusive call is a rough fit, not a confirmed value.
# Experiment: qHTS for Inhibitors of Cell Surface uPA Generation; further: nearly all actives have a fitted effect of over 55% in size
# Conditions: cell surface uPA generation assay; series mostly up to 38.3 µM
# Outline: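 Using RAW 264.7 macrophages, the screen measures whether compounds keep cellular ATP up by preventing uPA-driven LF translocation. Treatment lasted 24 h at 37 C, with a final top concentration of 38.3 uM, and luminescence was the readout.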
# Potency means the concentration at half of the fitted maximal effect.
row,SMILES,Potency
1,C#CCOCCOCCOCCNc1nc(N2CCN(C(=O)CCCCCCCCCCNC(=O)[C@H](CCCCN)n3cc(C[C@@H](C)CC)nn3)CC2)nc(N2CCN(C(=O)CCCCCCCCCCNC(=O)[C@@H]([C@H](C)O)n3cc(C)nn3)CC2)n1,"inconclusive: 22.4 µM [inhibitor, single point]"
2,CCC(CC)NC(=O)c1ccc(Cl)cc1,inactive
3,CCCCN(C(C)=O)c1ccc2c(c1)C1CC2CCN1C(=O)OCc1ccccc1 (stereo not given),"inconclusive: 12.6 µM [inhibitor, partial curve, poor fit]"
4,CCC(O)CNC(=O)NC(=C(Cl)Cl)c1ccc(C)c(F)c1 (stereo not given),active: 10 µM
5,CCC(CN(C)C)Oc1cc(NCc2ccccc2)c2ncn(C(C)C)c2c1 (stereo not given),"inconclusive: 12.6 µM [inhibitor, single point]"
6,CC(C)(C)NC(=O)C(c1ccc(O)cc1)N(C(=O)Cn1nnc(-c2ccc(F)cc2)n1)c1ccccc1F (stereo not given),"inconclusive: 11.2 µM [inhibitor, single point]"
7,COc1ccc(C(=O)/C=C/c2ccccc2)c(O)c1,"inconclusive: 11.2 µM [inhibitor, single point]"
8,Cc1cccc(Cn2c(=O)n(-c3ccc(CC(=O)NCc4ccco4)cc3)c(=O)c3sccc32)c1,"inconclusive: 12.6 µM [inhibitor, single point]"
9,CC(C)(C)[C@H]1COC(=O)[C@H](NC(=O)OCC2c3ccccc3-c3ccccc32)C/C=C\C[C@@H](CC(=O)N(CCO)Cc2ccccc2)C(=O)N1,"inconclusive: 12.6 µM [inhibitor, single point]"
10,c1ccc(CNc2ncnc3scc(-c4cccs4)c23)nc1,"inconclusive: 10 µM [inhibitor, single point]"
11,CCOc1ccc(-c2cc(CCCC(=O)NCc3ccco3)no2)cc1,"inconclusive: 6.31 µM [inhibitor, single point]"
12,COc1ccc(NC(=S)Nc2cc(C)[nH]n2)cc1Cl,inactive
13,O=C(c1cc(COc2ccc3ncccc3c2)on1)N1CCC[C@H]1CO,"inconclusive: 10 µM [inhibitor, single point]"
14,CC(C)C[C@H](NC(=O)c1nc[nH]c1C(=O)N[C@@H](CCCCNC(=O)OC(C)(C)C)C(=O)OC(C)(C)C)C(=O)OCc1ccccc1,"inconclusive: 7.08 µM [inhibitor, partial curve, poor fit]"
15,COc1ccc(C2=Nn3c(nnc3-c3ccccc3Cl)SC2)cc1OC1CCCC1,"inconclusive: 4.47 µM [inhibitor, partial curve, poor fit]"
16,Cc1cccc(C)c1OCc1cc(C(=O)N2CCCC2c2nonc2C)no1 (stereo not given),inactive
17,Cc1cc(C)cc(NC(=S)NC2CC3CCCC(C2)N3C2CCCC2)c1 (stereo not given),inactive
18,COc1cc(CNc2nc3ccccc3s2)cc(OC)c1OC,inactive
19,COc1cc2c(cc1OC)C(C)N(C(=O)Nc1ccc(F)cc1)CC2 (stereo not given),"inconclusive: 2.82 µM [inhibitor, single point]"
20,CC(Oc1ccccc1)C(=O)Nc1ccc(S(=O)(=O)N2CCN(C)CC2)cc1 (stereo not given),inactive
21,COc1cccc(N2CC(O)=C(c3nc4ccccc4c(=O)[nH]3)C2=N)c1,"inconclusive: 1.12 µM [inhibitor, full curve, poor fit]"
22,Cc1ccc(C(=O)NCCc2ccccc2)cc1,"inconclusive: 12.6 µM [inhibitor, partial curve, poor fit]"
23,CCN1C(=O)c2cccc3c(S(=O)(=O)N(C(C)=O)c4ccc(OC(C)=O)cc4)ccc1c23,"inconclusive: 7.94 µM [inhibitor, single point]"
24,CCOC(=O)c1sc(NC(=O)CSc2n[nH]c(-c3ccncc3)n2)c(C#N)c1C,inactive

# Pulled by compound from the entries so far, 2 records:
row,SMILES,Potency
9,CC(C)(C)[C@H]1COC(=O)[C@H](NC(=O)OCC2c3ccccc3-c3ccccc32)C/C=C\C[C@@H](CC(=O)N(CCO)Cc2ccccc2)C(=O)N1,"inconclusive: 12.6 µM [inhibitor, single point]"
21,COc1cccc(N2CC(O)=C(c3nc4ccccc4c(=O)[nH]3)C2=N)c1,"inconclusive: 1.12 µM [inhibitor, full curve, poor fit]"

# The results go on.

row,SMILES,Potency
1,COc1ccccc1NC(=O)/C(=C\c1cccs1)NC(=O)c1ccco1,"inconclusive: 3.16 µM [inhibitor, partial curve, poor fit]"
2,COc1ccc(-n2cc(CNCCc3cscn3)c(-c3ccccc3Cl)n2)cc1,inactive
3,CNC(=O)c1c(NC(=O)C2=COCCO2)sc2c1CCCC2,inactive
4,CCOC(=O)c1ccc(NC(=S)NCCCN2CCOCC2)cc1,"inconclusive: 0.0141 µM [inhibitor, full curve, poor fit]"
5,CCN(C(=O)CSc1ccccn1)C1CCCCC1,inactive
6,c1cnc(N2CCN(Cc3ccc4c(c3)OCO4)CC2)nc1,inactive
7,O=C(Nc1ccncc1)C1CCN(S(=O)(=O)c2cccc(C(F)(F)F)c2)CC1,"inconclusive: 3.16 µM [inhibitor, partial curve, poor fit]"
8,CCN(CC(=O)NC1CCS(=O)(=O)C1)S(=O)(=O)c1cc(Br)ccc1Br (stereo not given),"inconclusive: 3.16 µM [inhibitor, single point]"
9,CN1CCN(c2ncnc3sc(-c4ccccc4)cc23)CC1,"inconclusive: 6.31 µM [inhibitor, partial curve, poor fit]"
10,Cc1noc(C)c1S(=O)(=O)N(CC(=O)Nc1ccc2c(c1)OCCO2)c1ccc(C(C)C)cc1,"inconclusive: 15.8 µM [inhibitor, single point]"
11,COc1ccc(NC2=CC(=O)CC(c3ccc(C)cc3)C2)c(OC)c1 (stereo not given),inactive
12,Cc1sc2nc(CSc3nnnn3-c3ccc(Cl)cc3)[nH]c(=O)c2c1C,inactive
13,CCOc1cccc(NC(=O)c2cccc(F)c2)c1,"inconclusive: 14.1 µM [inhibitor, partial curve, poor fit]"
14,CCN1CCN(C(=S)NC(=O)c2cccc(Br)c2)CC1,inactive
15,Nc1cccc2c(=O)c3ccccc3[nH]c12,inactive
16,Cc1ccccc1NC(=O)c1ccccc1NC(=O)Cc1cccc2ccccc12,inactive
17,Cc1cccc(-n2c(SCC(=O)Nc3cccc(S(=O)(=O)NC4=NCCCCC4)c3)nc3ccccc3c2=O)c1C,"inconclusive: 12.6 µM [inhibitor, single point]"
18,COc1c(Cl)cc(C(=O)Nc2ccccc2C(=O)O)cc1Cl,"inconclusive: 7.94 µM [inhibitor, single point]"
19,CN1CCN(C(=S)c2cn(Cc3ccc(F)cc3)c3ccccc23)CC1,"inconclusive: 31.6 µM [inhibitor, partial curve, poor fit]"
20,CCC(CC)NCc1ccc2c(c1)c1ccccc1n2CC,"inconclusive: 28.2 µM [inhibitor, single point]"
21,Cc1ccc(NC(=O)CSc2nc3[nH]ncc3c(=O)[nH]2)cc1Cl,inactive
22,O=C(COc1ccc(Cl)cc1Cl)NNC(=O)c1cccnc1,inactive
23,O=[N+]([O-])c1ccccc1N/N=C/c1cccc(O)c1O,"inconclusive: 5.01 µM [inhibitor, partial curve]"
24,O=C1C=CC(=O)N1,"inconclusive: 10 µM [inhibitor, single point]"

# Not a retest: an excerpt of the list.
row,SMILES,Potency
15,Nc1cccc2c(=O)c3ccccc3[nH]c12,inactive
16,Cc1ccccc1NC(=O)c1ccccc1NC(=O)Cc1cccc2ccccc12,inactive
17,Cc1cccc(-n2c(SCC(=O)Nc3cccc(S(=O)(=O)NC4=NCCCCC4)c3)nc3ccccc3c2=O)c1C,"inconclusive: 12.6 µM [inhibitor, single point]"
18,COc1c(Cl)cc(C(=O)Nc2ccccc2C(=O)O)cc1Cl,"inconclusive: 7.94 µM [inhibitor, single point]"

# Going on with the list:

row,SMILES,Potency
1,CCC(C)(C)C1CCC2(CC1)NC(=O)N(CC(=O)NCCc1c[nH]c3ccccc13)C2=O (stereo not given),inactive
2,COc1ccc(-c2ccc(SCC(=O)Nc3nnc(C)s3)nn2)cc1,"inconclusive: 4.47 µM [inhibitor, single point]"
3,COc1ccccc1OCCn1cc(/C=N/NC(N)=S)c2ccccc21,"inconclusive: 7.94 µM [inhibitor, single point]"
4,O=C(c1ccc([N+](=O)[O-])s1)N1CCN(c2ccccc2)CC1,"inconclusive: 10 µM [inhibitor, partial curve, poor fit]"
5,O=c1oc2ccccc2cc1-c1csc(Cc2nc(-c3ccc(Cl)cc3)cs2)n1,inactive
6,COc1ccc(S(=O)(=O)/N=C2/NC(=O)/C(=C\c3ccco3)S2)cc1,inactive
7,Cc1ccc(NC(=O)C(=O)NCCCN2CCCC2=O)cc1,"inconclusive: 10 µM [inhibitor, partial curve, poor fit]"
8,CCC(C)NC(=O)CSc1ccc(S(=O)(=O)N2CCN(Cc3ccccc3)CC2)cn1 (stereo not given),inactive
9,Clc1ccccc1CSc1cnnc2ccccc12,inactive
10,CC(C)C[C@H](N)c1nnc(S(=O)(=O)Cc2cccc(F)c2)o1,"inconclusive: 8.91 µM [inhibitor, single point]"
11,Cc1cc(NC(=O)CSc2nc(-c3cccs3)nc3ccccc23)no1,active: 1.78 µM
12,CCOCCCNS(=O)(=O)c1ccc(NC(=O)N2c3ccccc3Sc3ccccc32)cc1,"inconclusive: 28.2 µM [inhibitor, single point]"
13,Cc1nc2c3ccccc3n(Cc3ccccc3F)c2s1,"inconclusive: 7.08 µM [inhibitor, single point]"
14,Cn1cc([N+](=O)[O-])c(C(=O)Nc2ccc(-c3nc4ccccc4[nH]3)cc2)n1,inactive
15,CNC(=O)CSCc1c(Cl)cccc1Cl,inactive
16,COc1cc(CN(CC(C)C)S(=O)(=O)c2ccccc2Br)cc(OC)c1,"inconclusive: 6.31 µM [inhibitor, partial curve, poor fit]"
17,Cc1noc2ncnc(Sc3c(Cl)cccc3Cl)c12,inactive
18,NC(=O)c1ccsc1NC(=O)c1ccc(S(=O)(=O)N2CCCc3ccccc32)cc1,"inconclusive: 8.91 µM [inhibitor, single point]"
19,CC(=O)Nc1sc(C)c(C)c1C(=O)OCC(=O)N(Cc1ccccc1)C(C)C,"inconclusive: 4.47 µM [inhibitor, partial curve, poor fit]"
20,O=C(N/N=C/c1cccnc1)c1cc(-c2ccc(Cl)cc2)nc2ccccc12,"inconclusive: 4.47 µM [inhibitor, partial curve]"
21,CCN(C(=O)CN1C(=O)NC(c2ccccc2)(c2ccc(C)c(C)c2)C1=O)C1CCCCC1 (stereo not given),"inconclusive: 10 µM [inhibitor, single point]"
22,Cn1nc([N+](=O)[O-])c(C(C#N)c2ccccn2)c(Cl)c1=O (stereo not given),"inconclusive: 10 µM [inhibitor, partial curve, poor fit]"
